Measured values from US20140303228A1, “Biomarkers for Amyotrophic Lateral Sclerosis and Methods Using the Same” (METABOLON, INC., priority 2011, published 2014).
Structures can show the parent of a compound that is named as a salt. Where a SMILES comes first, the peptide text is derived from it. [ ]: non-standard residue; d: D form. Hyp = O=C(O)[C@@H]1C[C@@H](O)CN1

Amino acid sequences for entries named in this document (tags omitted). A change or cut given only in a name is not applied to a line headed by its entry.
UniProt P01042: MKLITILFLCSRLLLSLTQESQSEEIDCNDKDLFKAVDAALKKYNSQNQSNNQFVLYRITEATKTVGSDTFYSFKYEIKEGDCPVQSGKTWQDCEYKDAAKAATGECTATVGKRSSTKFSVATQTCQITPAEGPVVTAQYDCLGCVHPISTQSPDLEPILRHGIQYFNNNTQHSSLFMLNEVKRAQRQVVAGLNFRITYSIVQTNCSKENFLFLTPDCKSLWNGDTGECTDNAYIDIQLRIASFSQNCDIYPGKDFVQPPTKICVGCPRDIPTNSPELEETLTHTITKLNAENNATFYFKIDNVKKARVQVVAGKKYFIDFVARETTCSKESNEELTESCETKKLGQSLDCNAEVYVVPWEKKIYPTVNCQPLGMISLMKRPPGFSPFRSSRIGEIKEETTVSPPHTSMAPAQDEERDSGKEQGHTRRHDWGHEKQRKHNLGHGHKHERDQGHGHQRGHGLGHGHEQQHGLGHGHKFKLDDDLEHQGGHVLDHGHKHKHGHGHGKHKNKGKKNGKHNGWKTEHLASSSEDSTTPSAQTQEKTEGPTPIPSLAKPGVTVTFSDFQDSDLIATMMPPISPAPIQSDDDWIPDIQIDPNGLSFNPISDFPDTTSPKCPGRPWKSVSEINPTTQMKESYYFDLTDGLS

Assay: Metabolomic profiling of blood plasma samples, ALS vs. symptom mimic disease subjects (Tables 5, 9)
Parameters: species or system human
Details: for % Change in ALS: blood plasma, ALS mean (172 subjects) vs symptom mimic disease mean (73 subjects), positive = increase in ALS, T-test; for Direction of change in ALS: plasma, ALS patients relative to symptom mimic disease patients, Random Forest and/or Wilcoxon (FDR < 0.15)

Compound | % Change in ALS | Direction of change in ALS
Cc1cc(O)cc2c1O[C@](C)(CCC[C@H](C)CCC[C@H](C)CCCC(C)C)CC2 [delta-tocopherol] | −98% | Lower
C[N+](C)(C)CCCC(=O)[O-] [deoxycarnitine] | −10% | –
CCCCC/C=C\C/C=C\CCCCCCCCCC(=O)O [dihomo-linoleate (20:2n6), dihomo-linoleate] | 20% | –
CN(C)CC(=O)O [dimethylglycine] | 10% | –
CCCCC/C=C\C/C=C\CCCCCCCCCCCC(=O)O [docosadienoate (22:2n6), docosadienoate] | 15% | –
O=C(O)CCCCCCCCCCC(=O)O [dodecanedioate] | 8% | Higher
OC[C@@H](O)[C@@H](O)CO [erythritol] | −207% | –
CCCCCCCCCCCCC/C=C/[C@@H](O)[C@@H](N)COP(=O)(O)O [erythro-sphingosine-1-phosphate] | −6% | –
O=C(CO)[C@H](O)CO [erythrulose] | 10% | –
O=C(CO)[C@@H](O)[C@H](O)[C@H](O)CO [fructose] | −31% | –
O=C(O)/C=C/C(=O)O [fumarate] | 6% | –
Cc1c(O)cc2c(c1C)OC(C)(CCC(=O)O)CC2 (stereo not shown) [gamma-CEHC] | −10% | –
C[C@H](NC(=O)CC[C@H](N)C(=O)O)C(=O)O [gamma-glutamylalanine] | −6% | –
CC[C@H](C)[C@H](NC(=O)CC[C@H](N)C(=O)O)C(=O)O [gamma-glutamylisoleucine] | 19% | –
CC(C)C[C@H](NC(=O)CC[C@H](N)C(=O)O)C(=O)O [gamma-glutamylleucine] | 14% | –
CSCC[C@H](NC(=O)CC[C@H](N)C(=O)O)C(=O)O [gamma-glutamylmethionine] | 5% | –
CC(C)[C@H](NC(=O)CC[C@H](N)C(=O)O)C(=O)O [gamma-glutamylvaline] | 28% | –
Cc1c(O)cc2c(c1C)O[C@](C)(CCC[C@H](C)CCC[C@H](C)CCCC(C)C)CC2 [gamma-tocopherol] | −17% | –
O=P(O)(O)OCC(O)CO (stereo not shown) [glycerol 3-phosphate (G3P), glycerol 3-phosphate] | 6% | –
OCC(O)CO [glycerol] | 9% | –
NCC(=O)O [glycine] | 6% | –

Compound | % Change in ALS | Direction of change in ALS
C[C@H](CCC(=O)NCC(=O)O)[C@H]1CC[C@H]2[C@@H]3[C@H](O)C[C@@H]4C[C@H](O)CC[C@]4(C)[C@H]3C[C@H](O)[C@]12C [glycocholate] | −30% | –
C[C@H](CCC(=O)NCC(=O)O)[C@H]1CC[C@H]2[C@@H]3CC[C@@H]4C[C@H](O)CC[C@]4(C)[C@H]3C[C@H](O)[C@]12C [glycodeoxycholate] | −22% | –
C[C@H](CCC(=O)NCC(=O)O)[C@H]1CC[C@H]2[C@@H]3CC[C@@H]4C[C@H](OS(=O)(=O)O)CC[C@]4(C)[C@H]3CC[C@]12C [glycolithocholate sulfate] | 11% | –
C[C@H](CCC(=O)NCC(=O)O)[C@H]1CC[C@H]2[C@@H]3[C@@H](O)C[C@@H]4C[C@H](O)CC[C@]4(C)[C@H]3CC[C@]12C [glycoursodeoxycholate] | 8% | –
C=CC1=C(C)c2cc3[n-]c(cc4[n-]c(cc5nc(cc1n2)C(C)=C5C=C)c(C)c4CCC(=O)O)c(CCC(=O)O)c3C.[Fe+2] [heme] | −5% | –
CCCCCC(=O)OC(CC(=O)O)C[N+](C)(C)C.[Cl-] (stereo not shown) [hexanoylcarnitine] | 8% | –
O=C(O)C(O)Cc1c[nH]c2ccccc12 (stereo not shown) [indolelactate] | −16% | –
CC(C)C(=O)O[C@H](CC(=O)[O-])C[N+](C)(C)C [isobutyrylcarnitine] | −14% | –
CC(C)CC(=O)O[C@H](CC(=O)[O-])C[N+](C)(C)C [isovalerylcarnitine] | −8% | –
CC(O)C(=O)O (stereo not shown) [lactate] | −5% | –
CC(C)CCC[C@@H](C)[C@H]1CC[C@H]2C3=CC[C@H]4C[C@@H](O)CC[C@]4(C)[C@H]3CC[C@]12C [lathosterol] | 14% | –
CCCCCCCCCCCC(=O)O [laurate (12:0), laurate] | −8% | –
CCCCCCCCCCCC(=O)O[C@H](CC(=O)[O-])C[N+](C)(C)C [laurylcarnitine] | −6% | –
OC[C@@H](O)[C@@H](O)[C@H](O)[C@H](O)CO [mannitol] | −136% | –
CCCCCCCCCCCCCCCCC(=O)O [margarate (17:0), margarate] | 11% | –
CCCCCCCCCCCCCCCC(=O)OC [methyl palmitate (15 or 2), methyl palmitate] | 5% | –
COP(=O)(O)O [methylphosphate] | 6% | –
CCCCCCCCCCCCCCCCCCC(=O)O [nonadecanoate (19:0), nonadecanoate] | 11% | –
CCCCCCCC(=O)O[C@H](CC(=O)O)C[N+](C)(C)C [octanoylcarnitine] | −9% | –
CCCCCCCC/C=C\CCCCCCCC(=O)O[C@H](CC(=O)[O-])C[N+](C)(C)C [oleoylcarnitine] | 8% | –
O=C(O)C(=O)O [oxalate (ethanedioate), ethanedioate] | −6% | –

Compound | % Change in ALS | Direction of change in ALS
Cn1c(=O)[nH]c2ncn(C)c2c1=O [paraxanthine] | −17.36% | Lower
CCCCCCCCCCCCCCC(=O)O [pentadecanoate (15:0), pentadecanoate] | 12% | –
O=S(=O)(O)Oc1ccccc1 [phenol sulfate] | 9% | –
O=C(O)C1CCCCN1 (stereo not shown) [pipecolate] | −13% | –
O=C(O)[C@@H]1C[C@@H](O)CN1C(=O)[C@@H]1CCCN1 [pro-hydroxy-pro, prolylhydroxyproline] (H-Pro-[Hyp]-OH) | 11% | Higher
Cc1ncc(CO)c(C(=O)O)c1O [pyridoxate] | −62% | –
O=C(O)[C@]1(O)C[C@@H](O)[C@@H](O)[C@H](O)C1 [quinate] | −22% | –
O=C1NS(=O)(=O)c2ccccc21 [saccharin] | −75% | –
CNCC(=O)O [sarcosine (N-Methylglycine), N-Methylglycine] | 30% | –
O=C(O)CCCCCCCCC(=O)O [sebacate (decanedioate), decanedioate] | 8% | –
N[C@@H](CO)C(=O)O [serine] | 11% | Higher
CC/C=C\C/C=C\C/C=C\C/C=C\CCCCC(=O)O [stearidonate (18:4n3), stearidonate] | 10% | –
C[N+](C)(C)C[C@@H](CC(=O)[O-])OC(=O)CCC(=O)O [succinylcarnitine] | −8% | –
C[C@H](CCC(=O)NCCS(=O)(=O)O)[C@H]1CC[C@H]2[C@@H]3CC[C@@H]4C[C@H](O)CC[C@]4(C)[C@H]3C[C@H](O)[C@]12C [taurodeoxycholate] | −25% | –
C[C@H](CCC(=O)NCCS(=O)(=O)O)[C@H]1CC[C@H]2[C@@H]3CC[C@@H]4C[C@H](OS(=O)(=O)O)CC[C@]4(C)[C@H]3CC[C@]12C [taurolithocholate 3-sulfate] | 12% | –
O=C(O)CCCCCCCCCCCCC(=O)O [tetradecanedioate] | 15% | –
Cn1cnc2c1c(=O)[nH]c(=O)n2C [theobromine] | −43% | –
Cn1c(=O)c2[nH]cnc2n(C)c1=O [theophylline] | −30% | –
OC[C@@H](O)[C@H](O)CO [threitol] | −18% | –
Cc1ccc(C(C)C)c(OS(=O)(=O)O)c1 [thymol sulfate] | −17% | –
C/C=C(\C)C(=O)O[C@H](CC(=O)[O-])C[N+](C)(C)C [tiglyl carnitine] | −7% | –

Compound | % Change in ALS | Direction of change in ALS
C[N+](C)(C)[C@@H](Cc1c[nH]c2ccccc12)C(=O)[O-] [tryptophan betaine] | −18% | –
Oc1nc(O)c2nc(O)[nH]c2n1 [urate] | −7.41% ^ | Lower
CCC1=C(C)C(Cc2[nH]c(Cc3[nH]c(CC4NC(=O)C(C)=C4CC)c(C)c3CCC(=O)O)c(CCC(=O)O)c2C)NC1=O (stereo not shown) [urobilinogen] | −25% | –
OC[C@@H](O)[C@H](O)[C@@H](O)CO [xylitol] | −14% | –
O=C(O)[C@H](O)[C@@H](O)[C@H](O)CO [xylonate] | 14% | –
O=C[C@H](O)[C@@H](O)[C@H](O)CO [xylose] | −17% | –
DSGEGDFXAEGGGVR (SEQ ID NO: 4): peptide biomarker measured in plasma, SEQ ID NO: 4 | 33% | –
HWESASXX (SEQ ID NO: 1): peptide biomarker measured in plasma, SEQ ID NO: 1 | 22% | –
XHWESASXXR (SEQ ID NO: 7): peptide biomarker measured in plasma, SEQ ID NO: 7 | 138% | –
[H]HWESASLLR[OH] (SEQ ID NO: 6): peptide biomarker measured in plasma, SEQ ID NO: 6 (free N-terminus, C-terminal acid; listed as Homo sapiens) | 233% | –
andro steroid monosulfate [andro steroid monosulfate 2] | 11% | –
bradykinin, des-arg(9) (RPPGFSPF; Bradykinin; UniProt P01042 381-388, looked up, fragment) | 150% | –
bradykinin, hydroxy-pro(3) | 117% | –
deoxycholate | 8% | –
dihomo-linolenate [dihomo-linolenate (20:3n3 or n6)] | 14% | –
docosapentaenoate [docosapentaenoate (n3 DPA; 22:5n3)] | 19% | –
docosapentaenoate [docosapentaenoate (n6 DPA; 22:5n6)] | 11% | –
eicosenoate [eicosenoate (20:1n9 or 11)] | 28% | –
glutaroyl carnitine | −8% | –
